# The exact form of at least one protein or probe is not confirmed. At least one result comes from cells or an extract, where the contact may be indirect. For part of these data: Negatives hold for the conditions tested. Protein sequences can lack the tags named with them.
# How the values were obtained:
# [1] = biological target: T1, Nrf2 (endogenous) (Homo sapiens (human diploid fibroblasts, HDFs)) (UniProt Q16236); assay: competition EMSA; details: unlabeled competitor, 5- or 50-fold excess, against biotin GPX7-ARE, Beyotime Chemiluminescent EMSA Kit per manufacturer (binding buffer, salt, pH not stated), antibody pre-incubation 20 min on ice, 5% native PAGE in 0.5x TBE, protein in an extract, label: none (unlabeled competitor)
# T1 sequence (looked up, limits assumed): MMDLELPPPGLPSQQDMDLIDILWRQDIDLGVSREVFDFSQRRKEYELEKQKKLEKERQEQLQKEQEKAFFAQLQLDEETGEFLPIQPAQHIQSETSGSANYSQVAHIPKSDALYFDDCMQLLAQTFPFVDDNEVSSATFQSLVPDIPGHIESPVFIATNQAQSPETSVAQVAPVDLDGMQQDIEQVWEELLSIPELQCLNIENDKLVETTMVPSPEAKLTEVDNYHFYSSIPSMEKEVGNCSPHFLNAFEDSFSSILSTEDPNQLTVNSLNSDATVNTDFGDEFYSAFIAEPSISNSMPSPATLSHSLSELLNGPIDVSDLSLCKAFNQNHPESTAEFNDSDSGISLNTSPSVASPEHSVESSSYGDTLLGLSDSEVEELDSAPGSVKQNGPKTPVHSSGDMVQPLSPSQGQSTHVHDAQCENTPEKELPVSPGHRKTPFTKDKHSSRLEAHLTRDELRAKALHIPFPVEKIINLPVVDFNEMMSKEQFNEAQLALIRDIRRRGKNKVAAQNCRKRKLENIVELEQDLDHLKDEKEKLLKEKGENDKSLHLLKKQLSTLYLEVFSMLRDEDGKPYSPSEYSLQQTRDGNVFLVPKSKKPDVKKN
# [2] = biological target: T1, Nrf2 (endogenous) (Homo sapiens (human diploid fibroblasts, HDFs)); assay: EMSA supershift; details: anti-Nrf2 antibody, HDF nuclear extract; Beyotime Chemiluminescent EMSA Kit per manufacturer (binding buffer, salt, pH not stated); antibody pre-incubation 20 min on ice; 5% native PAGE in 0.5x TBE; protein in an extract
sequence,measurement,setting,value
ACTGAGGGTGACTCAATAAAATC (double strand) [mHO1-ARE (HO-1-mARE)],binding result,[1]; did not abrogate the complex,no binding
ACTGAGGGTGACTCAGCAAAATC (double strand) [HO1-ARE],binding result,[1]; abrogated the complex,binds
CTAGAGAGTGACTTGGCACTCAA (double strand) [GPX7-ARE],binding result,[2],binds

# Reference: paper PMC6052468
